Among the data in PubChem BioAssay AID2685 (National Center for Advancing Translational Sciences (NCATS), 2010) are cell number change and AC50 values, retold here.

The other results are listed elsewhere or left out. The main result of the screen is listed elsewhere. These columns were measured beside it and carry no call. Compounds called inactive in the main read-out are mostly missing here. The note in brackets gives the kind of curve behind each potency; many fits are weak.

This test is described as follows: qHTS Assay for Lipid Storage Modulators in Drosophila S3 Cells.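 As to cell number change: cells counted by Cell Tracker Red CMTPX staining in the red channel.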 The settings on record: BODIPY lipid droplet fluorescence, 18-24 h; for cell number change: measured here: cell count max response, cells fed with added oleic acid. The method, boiled down: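 Drosophila S3 cells loaded with oleic acid (400 uM, as added) and compounds at several concentrations; lipid droplets imaged by 488-nm laser-scanning cytometry, 500–530 nm intensity and object ratio to cell channel. Percent activity normalized to 20 uM Triacsin C.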
(In qHTS, concentration-response curves come from the screen itself.)

Setting [1] is: measured here: cell number channel AC50, cells fed with added oleic acid.
Setting [2] is: measured here: lipid fluorescence (Fed channel) AC50, cells fed with added oleic acid.

Broadly, the AC50 is the midpoint of the concentration-response curve, whichever way the signal moves. For `CCOC(=O)N1CCN(C(=O)Nc2cccc(Cl)c2)CC1`, the cell number change came out at 13.7%. Moreover, the concentration at half-maximal activity (AC50) under setting [1] was 2.06 µM [rising, single point].

For `COc1ccc(C(=O)NC(=S)Nc2cc(C)ccn2)cc1[N+](=O)[O-]`, the AC50 was 0.517 µM [rising, full curve] under setting [1] and 2.91 µM [rising, full curve] under setting [2].

As for `CC(C)(C)c1ccc(O)c(N=Cc2cc3c(cc2[N+](=O)[O-])OCO3)c1`, the cell number change was found to be 6.2%. For the same molecule, the AC50 under setting [2] was 29.1 µM [falling, single point].

On to `Cc1noc(C)c1COc1cccc(C(=O)OCC(=O)NC(=O)c2ccc(OC(F)F)cc2)c1`, for which the cell number change is -22.6%. Moreover, the half-maximal activity concentration (AC50) under setting [2] is 0.651 µM [falling, partial curve].

With `CN(C)S(=O)(=O)c1ccc(C(=O)Nc2cccnc2)cc1`, the cell number change came to 24.2%. Further, under setting [2], the AC50 is 29.1 µM [falling, single point].

Take `CN(C(=O)c1ccccc1C(=O)OCC(=O)NC(=O)NC(C)(C)C)C1CCCCC1`: under setting [2], the AC50 is 4.61 µM [falling, single point].

`CSCCC(NC(=O)c1ccc(Cl)cc1)C(=O)OCC(=O)c1ccc[nH]1` (configuration not stated): the cell number change was found to be 3.95%. Also, the AC50 under setting [2] is 7.31 µM [rising, partial curve, poor fit].

`O=C(COc1ccc(-c2nnco2)cc1)N1CCN(S(=O)(=O)c2ccccc2)CC1`: the cell number change came to 5.67%. For the same molecule, the AC50 under setting [2] was 1.46 µM [rising, partial curve].

With `CCCCNC(=O)O[C@H]1C[C@@H]2CCN3C(=O)CCC(C)(C)[C@H](C1)[C@H]23`, the cell number change is -10.8%. Under setting [2], the AC50 is 20.6 µM [falling, single point].

For the molecule `CCSc1nnc(-c2ccncc2)n1Cc1ccccc1`, the cell number change was 38.7%. Besides, the AC50 under setting [2] is 0.92 µM [rising, partial curve].

Regarding `Cc1cc(NCCCn2ccnc2)n2ncc(-c3ccccc3)c2n1`, the cell number change amounted to 66.2%. Under setting [1], the AC50 is 29.1 µM [rising, partial curve, poor fit]. The concentration at half-maximal activity (AC50) under setting [2] is 0.58 µM [rising, partial curve].

For `CC(C)c1cc(N2CCC(=O)NC2=O)cc(C(=O)O)c1O`, the cell number change is -3.67%. Moreover, under setting [1], the AC50 is 0.082 µM [rising, full curve, poor fit]. Moreover, the concentration at half-maximal activity (AC50) under setting [2] is 0.0731 µM [rising, full curve, poor fit].

Consider `Cc1c(OCC(N)=O)ccc2c(-c3ccccc3)cc(=O)oc12`, for which the cell number change is 13.3%. Further, under setting [2], the AC50 was 6.51 µM [falling, single point].

As to `CN(C)C(=O)Cn1cnc2c(cnn2-c2ccccc2Cl)c1=O`, the cell number change was determined as 13.4%. In addition, under setting [2], the AC50 is 5.17 µM [falling, single point].

Take `Cc1ccc(-n2c(-c3ccc(Br)cc3)c[n+]3c2CCc2ccc4cccnc4c2-3)cc1`: the cell number change is -85.2%. The AC50 under setting [1] was 2.31 µM [falling, full curve]. The AC50 under setting [2] was 0.731 µM [falling, full curve].
